Source: article PMC8759291
Results are given in words; binding and its absence hold for the method and conditions named. In cells and extracts the contact can be indirect. Some entries that bind do so weakly or less than the wild type.

The chains behind the UniProt entries cited, without tags or fusion partners.
UniProt O00425: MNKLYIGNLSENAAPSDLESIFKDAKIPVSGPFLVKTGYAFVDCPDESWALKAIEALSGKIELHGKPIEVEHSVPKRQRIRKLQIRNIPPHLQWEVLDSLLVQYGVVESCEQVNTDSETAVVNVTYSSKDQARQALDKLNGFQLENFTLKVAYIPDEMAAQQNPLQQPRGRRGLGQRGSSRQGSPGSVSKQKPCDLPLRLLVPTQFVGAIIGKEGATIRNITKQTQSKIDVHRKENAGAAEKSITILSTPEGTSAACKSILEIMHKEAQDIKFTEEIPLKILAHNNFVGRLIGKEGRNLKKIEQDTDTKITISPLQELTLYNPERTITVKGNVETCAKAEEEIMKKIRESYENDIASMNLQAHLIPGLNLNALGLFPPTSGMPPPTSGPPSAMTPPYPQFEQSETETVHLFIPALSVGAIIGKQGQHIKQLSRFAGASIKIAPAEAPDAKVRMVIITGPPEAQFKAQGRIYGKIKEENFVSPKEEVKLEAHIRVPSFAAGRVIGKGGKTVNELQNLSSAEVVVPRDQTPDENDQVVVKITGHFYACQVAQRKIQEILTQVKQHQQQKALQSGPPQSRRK
UniProt Q9Y4D8: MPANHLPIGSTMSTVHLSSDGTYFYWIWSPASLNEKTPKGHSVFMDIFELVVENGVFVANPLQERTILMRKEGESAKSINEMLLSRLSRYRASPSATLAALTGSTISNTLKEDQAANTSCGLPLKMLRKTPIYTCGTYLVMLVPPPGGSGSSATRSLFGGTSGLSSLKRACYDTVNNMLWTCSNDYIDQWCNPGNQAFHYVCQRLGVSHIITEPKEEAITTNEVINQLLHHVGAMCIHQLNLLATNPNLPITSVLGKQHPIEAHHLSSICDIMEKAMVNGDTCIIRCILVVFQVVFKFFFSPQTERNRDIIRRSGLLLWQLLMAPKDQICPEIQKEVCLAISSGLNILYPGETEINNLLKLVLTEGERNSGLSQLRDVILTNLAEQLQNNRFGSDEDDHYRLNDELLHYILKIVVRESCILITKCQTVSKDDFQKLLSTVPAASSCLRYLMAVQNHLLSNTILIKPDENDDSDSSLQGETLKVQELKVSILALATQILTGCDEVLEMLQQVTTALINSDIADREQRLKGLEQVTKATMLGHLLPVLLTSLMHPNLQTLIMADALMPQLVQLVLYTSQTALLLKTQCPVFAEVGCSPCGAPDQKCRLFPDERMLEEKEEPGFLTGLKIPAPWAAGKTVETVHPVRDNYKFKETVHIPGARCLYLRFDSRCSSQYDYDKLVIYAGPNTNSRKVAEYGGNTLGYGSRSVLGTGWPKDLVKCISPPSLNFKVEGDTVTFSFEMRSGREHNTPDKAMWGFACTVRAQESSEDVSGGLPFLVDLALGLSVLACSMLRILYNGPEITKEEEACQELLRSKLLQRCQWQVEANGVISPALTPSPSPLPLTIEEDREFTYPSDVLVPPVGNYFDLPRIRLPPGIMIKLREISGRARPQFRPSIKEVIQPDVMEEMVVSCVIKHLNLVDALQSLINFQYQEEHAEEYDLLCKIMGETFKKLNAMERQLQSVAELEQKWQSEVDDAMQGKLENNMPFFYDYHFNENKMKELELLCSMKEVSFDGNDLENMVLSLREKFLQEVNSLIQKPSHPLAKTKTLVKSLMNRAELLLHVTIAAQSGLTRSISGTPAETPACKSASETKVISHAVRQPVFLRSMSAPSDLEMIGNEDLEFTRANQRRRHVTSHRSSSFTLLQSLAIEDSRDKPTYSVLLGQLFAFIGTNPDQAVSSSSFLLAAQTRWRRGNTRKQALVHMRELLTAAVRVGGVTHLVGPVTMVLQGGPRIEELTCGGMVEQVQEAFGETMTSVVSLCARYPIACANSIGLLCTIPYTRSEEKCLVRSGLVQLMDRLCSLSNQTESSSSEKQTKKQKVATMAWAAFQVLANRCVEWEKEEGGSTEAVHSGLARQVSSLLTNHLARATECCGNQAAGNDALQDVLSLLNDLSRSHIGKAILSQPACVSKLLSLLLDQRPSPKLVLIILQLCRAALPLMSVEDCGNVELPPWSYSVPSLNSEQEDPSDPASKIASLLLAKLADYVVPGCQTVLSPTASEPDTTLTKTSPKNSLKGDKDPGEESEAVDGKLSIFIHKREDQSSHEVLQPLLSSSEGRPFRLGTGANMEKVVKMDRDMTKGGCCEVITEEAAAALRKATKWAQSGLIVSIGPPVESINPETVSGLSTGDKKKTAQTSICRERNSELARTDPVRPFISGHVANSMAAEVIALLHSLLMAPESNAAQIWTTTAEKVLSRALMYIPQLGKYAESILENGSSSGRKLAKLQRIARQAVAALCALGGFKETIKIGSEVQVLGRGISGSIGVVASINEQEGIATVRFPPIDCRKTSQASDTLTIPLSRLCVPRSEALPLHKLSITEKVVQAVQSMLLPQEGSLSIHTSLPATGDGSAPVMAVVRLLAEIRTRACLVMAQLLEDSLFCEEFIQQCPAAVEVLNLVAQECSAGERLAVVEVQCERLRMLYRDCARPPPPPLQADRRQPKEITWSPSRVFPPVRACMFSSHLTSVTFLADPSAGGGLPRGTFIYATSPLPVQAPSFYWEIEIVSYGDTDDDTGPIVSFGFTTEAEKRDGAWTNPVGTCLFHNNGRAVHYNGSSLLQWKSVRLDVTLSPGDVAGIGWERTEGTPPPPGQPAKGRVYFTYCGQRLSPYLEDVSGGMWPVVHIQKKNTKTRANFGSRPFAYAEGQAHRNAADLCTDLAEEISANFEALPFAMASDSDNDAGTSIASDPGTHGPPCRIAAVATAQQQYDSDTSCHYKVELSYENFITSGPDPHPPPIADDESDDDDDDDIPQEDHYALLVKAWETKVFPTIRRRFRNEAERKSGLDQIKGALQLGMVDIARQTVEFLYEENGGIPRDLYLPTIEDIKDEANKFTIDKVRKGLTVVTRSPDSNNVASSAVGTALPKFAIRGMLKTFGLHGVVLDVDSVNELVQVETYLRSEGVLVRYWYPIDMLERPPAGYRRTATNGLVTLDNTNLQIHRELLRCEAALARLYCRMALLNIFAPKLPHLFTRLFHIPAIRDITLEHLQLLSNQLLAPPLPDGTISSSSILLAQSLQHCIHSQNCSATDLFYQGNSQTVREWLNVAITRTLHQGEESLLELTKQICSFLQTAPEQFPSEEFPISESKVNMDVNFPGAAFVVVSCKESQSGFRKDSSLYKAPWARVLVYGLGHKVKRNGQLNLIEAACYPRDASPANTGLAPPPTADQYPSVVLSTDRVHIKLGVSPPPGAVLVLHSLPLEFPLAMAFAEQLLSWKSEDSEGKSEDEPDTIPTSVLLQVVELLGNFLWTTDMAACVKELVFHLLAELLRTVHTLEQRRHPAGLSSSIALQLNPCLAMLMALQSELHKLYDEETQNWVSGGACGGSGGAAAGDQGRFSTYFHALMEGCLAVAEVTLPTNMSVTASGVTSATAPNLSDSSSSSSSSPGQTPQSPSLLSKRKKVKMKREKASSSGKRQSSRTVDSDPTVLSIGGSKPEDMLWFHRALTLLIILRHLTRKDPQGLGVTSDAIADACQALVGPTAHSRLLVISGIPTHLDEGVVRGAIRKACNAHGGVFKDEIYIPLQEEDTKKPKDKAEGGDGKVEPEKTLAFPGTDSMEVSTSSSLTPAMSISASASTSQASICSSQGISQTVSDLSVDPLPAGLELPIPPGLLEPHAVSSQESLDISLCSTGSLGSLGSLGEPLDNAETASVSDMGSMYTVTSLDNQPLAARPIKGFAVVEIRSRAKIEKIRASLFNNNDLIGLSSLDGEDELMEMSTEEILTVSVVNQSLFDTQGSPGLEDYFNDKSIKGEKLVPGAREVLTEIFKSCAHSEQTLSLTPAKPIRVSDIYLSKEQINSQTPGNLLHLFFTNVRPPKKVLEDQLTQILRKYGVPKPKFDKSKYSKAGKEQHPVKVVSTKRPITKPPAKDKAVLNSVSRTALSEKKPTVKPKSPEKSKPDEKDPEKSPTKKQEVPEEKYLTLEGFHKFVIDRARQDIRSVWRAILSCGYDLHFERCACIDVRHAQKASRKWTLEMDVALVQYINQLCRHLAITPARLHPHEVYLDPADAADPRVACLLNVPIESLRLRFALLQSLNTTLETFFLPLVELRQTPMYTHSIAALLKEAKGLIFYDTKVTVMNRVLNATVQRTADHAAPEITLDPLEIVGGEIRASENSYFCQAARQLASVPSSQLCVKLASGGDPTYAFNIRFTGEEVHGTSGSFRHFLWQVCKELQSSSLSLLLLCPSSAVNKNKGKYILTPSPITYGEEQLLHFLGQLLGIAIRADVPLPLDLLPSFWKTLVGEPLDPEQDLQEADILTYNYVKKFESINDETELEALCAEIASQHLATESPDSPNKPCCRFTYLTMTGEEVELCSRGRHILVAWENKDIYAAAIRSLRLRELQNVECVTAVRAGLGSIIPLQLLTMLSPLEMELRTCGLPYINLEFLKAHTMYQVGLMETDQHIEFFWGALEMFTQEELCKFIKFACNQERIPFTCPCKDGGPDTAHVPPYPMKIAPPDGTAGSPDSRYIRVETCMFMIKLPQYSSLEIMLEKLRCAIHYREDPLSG

Tests used:
[1] = target: IGF2BP3 (insulin-like growth factor 2 mRNA binding protein 3) (human (endogenous in U251 and A172)) (UniProt O00425); assay: co-IP; GBM cells transfected with ov-NC (control vector); lysate in co-IP buffer, magnetic beads with antibodies at 4 °C for 12 h; Western blot
[2] = target: IGF2BP3 (insulin-like growth factor 2 mRNA binding protein 3) (human (endogenous in U251 and A172)) (UniProt O00425); assay: condition: only in GBM cells overexpressing circNEIL3 (ov-circNEIL3); co-IP; GBM cells transfected with ov-circNEIL3 (circNEIL3 overexpression); lysate in co-IP buffer, magnetic beads with antibodies at 4 °C for 12 h; Western blot

binding [1]: binds | binding [2]: no binding
Substance: HECTD4 (from UniProt Q9Y4D8 1-3996) (enzyme)
